Data reported in PMC7819943, “Rice protein-binding microarrays: a tool to detect cis-acting elements near promoter regions in rice”.
The list shows a part of the results.

Protein sequences, listed by entry. Tags and fused reporters are not part of them.
UniProt Q0JBA9, entry or part of it: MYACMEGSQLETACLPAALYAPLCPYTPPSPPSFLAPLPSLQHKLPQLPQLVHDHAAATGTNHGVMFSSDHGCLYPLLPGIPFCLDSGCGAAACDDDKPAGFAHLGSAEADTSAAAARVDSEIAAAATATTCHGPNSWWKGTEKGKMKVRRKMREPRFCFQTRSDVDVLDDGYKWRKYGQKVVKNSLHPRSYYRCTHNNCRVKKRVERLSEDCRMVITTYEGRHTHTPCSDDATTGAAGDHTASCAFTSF

Each sequence was assayed against OsWRKY34 (Oryza sativa, UniProt Q0JBA9 1-250) (assay: protein-binding microarray (RPBM); PBS, 2% BSA, 51.3 ng/ul salmon testes DNA, 50 uM zinc acetate, 200 nM TF, 25 C, 1 h; high values mean tight binding). Conditions: protein: recombinant; tags: N-terminal polyhistidine and DsRed monomer fusion (pET32a); label: CyDye5-dUTP incorporated in the synthesized complementary strand; 3' TTTTT single-stranded linker to array surface; dsDNA, one strand shown.
How it was run: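 Transcription factors, each fused N-terminally to a polyhistidine tag and DsRed, were expressed in E. coli BL21-CodonPlus and purified on Ni–NTA. A custom Agilent array was made double-stranded by primer extension with Cy5-dUTP and blocked with 2% BSA. It was incubated with 200 nM protein in PBS, 2% BSA, salmon testes DNA and 50 µM zinc acetate at 25 °C for 1 h, then washed. The binding signal is per-feature fluorescence intensity (arbitrary units) read on an Axon 4000B scanner.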

| Sequence | binding signal |
| --- | --- |
| GAACGCCCATTTCCCCAACGCCTCGCGCCACCCGCGCCGACGGAGTCACCTAGTGCAG | 9440 fluorescence intensity (a.u.) |
| GGCCCCTTACTGACATGTAATAACACTATTCCTTTTGACCCGGAGTCACCTAGTGCAG | 8660 fluorescence intensity (a.u.) |
| CCGCTTCCACCCACTCCAACCGGCCCATCCAGCCCACGGCCGGAGTCACCTAGTGCAG | 9100 fluorescence intensity (a.u.) |
| TCCATTTGTCTGTTTGTGTTGGCGTTGGGTTAAAAGCTGACGGAGTCACCTAGTGCAG | 11100 fluorescence intensity (a.u.) |
| CTAGCTAGTTTGTTTTCGTCTCAATCCATCTGTTCGGCAGCGGAGTCACCTAGTGCAG | 8170 fluorescence intensity (a.u.) |
| TATGTCTTTCTCTTTCAATCTCTTCATGTGTGCCATGTTCCGGAGTCACCTAGTGCAG | 9020 fluorescence intensity (a.u.) |
| CGATTAGAGATCGGTTCATGTGTTGCATGCTGTATTTCTTCGGAGTCACCTAGTGCAG | 9970 fluorescence intensity (a.u.) |
| CTTTTCCCTTTTCTTTTTAATTAAAACCTACTGTTTTTCCCGGAGTCACCTAGTGCAG | 9680 fluorescence intensity (a.u.) |
| CTCACTGCCACTGCATCTTCTTCTTCAGTTCTTCTTCTTCCGGAGTCACCTAGTGCAG | 12900 fluorescence intensity (a.u.) |
| ATCTTTGACGTCGTTGACTTTTAAAAAAATGTTTGACCGTCGGAGTCACCTAGTGCAG | 22300 fluorescence intensity (a.u.) |
| CTGTTTTGTGGTGTTGCACACATTCTACCATTTGAACTGTCGGAGTCACCTAGTGCAG | 9380 fluorescence intensity (a.u.) |
| TTTCATCCATTTTTCCGCTCTCTCTCTCTCCGAATGCGCGCGGAGTCACCTAGTGCAG | 9050 fluorescence intensity (a.u.) |
| GTAATTCATATCCATTCATCGTACGACCTCTGTAATAATTCGGAGTCACCTAGTGCAG | 11500 fluorescence intensity (a.u.) |
| GCTCGAATTGCCACGTAAGCGCCACGTCAATGCCACGTCACGGAGTCACCTAGTGCAG | 8620 fluorescence intensity (a.u.) |
| AATCGATCCCACATTATCATCTTGCGGTACATGTATATTTCGGAGTCACCTAGTGCAG | 12000 fluorescence intensity (a.u.) |
| ATTACTTGGTTGGTATTTGATGCGTCTAACCTGTTATTAACGGAGTCACCTAGTGCAG | 8300 fluorescence intensity (a.u.) |
| AAGTTTTCGTGCTTAATTTTAATCGCCGTCTTATTTAAAACGGAGTCACCTAGTGCAG | 8100 fluorescence intensity (a.u.) |
| AGGGCCTAAATCTCGTGGAATCTCATGCTTCAATATCGCGCGGAGTCACCTAGTGCAG | 8460 fluorescence intensity (a.u.) |
| TCACCTCACCCTCTCGCGGTTTGAGTTTTCCACTTCCACGCGGAGTCACCTAGTGCAG | 9650 fluorescence intensity (a.u.) |
| GTTTGATCCATTACAGCTCCACATATATTGTGAAATCATTCGGAGTCACCTAGTGCAG | 10500 fluorescence intensity (a.u.) |
| TTAATGTTATGTAGGTCAGTAGGTGTGTATTTTTGCGTAACGGAGTCACCTAGTGCAG | 9160 fluorescence intensity (a.u.) |
| CACCACCACCACCAACACTGCAACACAACACACCACCATGCGGAGTCACCTAGTGCAG | 8330 fluorescence intensity (a.u.) |
| CCACTTCATTTACCGACTACCGGTCACACTGTCACAGTTCCGGAGTCACCTAGTGCAG | 9090 fluorescence intensity (a.u.) |
| TATATATATATATATATATATATATATATGTGTGTGTGTGCGGAGTCACCTAGTGCAG | 13700 fluorescence intensity (a.u.) |
| GCATTCACCTTGCTTGACTGTAATTGAGTCATTGCTGTACCGGAGTCACCTAGTGCAG | 12600 fluorescence intensity (a.u.) |
| TTTGTGTGTTTAGTTTCTTACGTTTATAATTTTCTGAGTTCGGAGTCACCTAGTGCAG | 9390 fluorescence intensity (a.u.) |
| ACTTTGCACTGAACTAAACACAGCCGTATTTCTACTAGTCCGGAGTCACCTAGTGCAG | 9350 fluorescence intensity (a.u.) |

Pulled one by one from the entries so far, 2 records:

| Sequence | binding signal |
| --- | --- |
| AAGTTTTCGTGCTTAATTTTAATCGCCGTCTTATTTAAAACGGAGTCACCTAGTGCAG | 8100 fluorescence intensity (a.u.) |
| TATATATATATATATATATATATATATATGTGTGTGTGTGCGGAGTCACCTAGTGCAG | 13700 fluorescence intensity (a.u.) |

Remaining list, next part:

| Sequence | binding signal |
| --- | --- |
| AACGCGCTTACCGGCACTCTTCCATTGGATCTACTCTGCACGGAGTCACCTAGTGCAG | 9010 fluorescence intensity (a.u.) |
| CTCACAGGTCAACACACCACCAGATTATATAACTCTTCGACGGAGTCACCTAGTGCAG | 9300 fluorescence intensity (a.u.) |
| TCTCTCTCCTTTTGTTGCTTCCATTTCTCGTTCTTGCACGCGGAGTCACCTAGTGCAG | 10500 fluorescence intensity (a.u.) |
| TGCATCATATCCTCGTCGTCGTGGCTGCTTTGCCAGCTTGCGGAGTCACCTAGTGCAG | 8780 fluorescence intensity (a.u.) |
| TTAGTTGCTCTTACTTTTGCGGGGTTTCGTCCCATAGTTTCGGAGTCACCTAGTGCAG | 11400 fluorescence intensity (a.u.) |
| CCTAAGCCGTCCGATTCTCCACCATCCCGACGATCCCTCCCGGAGTCACCTAGTGCAG | 8060 fluorescence intensity (a.u.) |
| CGTCCTTTGCGCCGTCGGCCGACCTCATCCCCACCATTTTCGGAGTCACCTAGTGCAG | 8220 fluorescence intensity (a.u.) |
| TAACTGTTTGAGAATTTGTGGTTTGCTACTACTACTTGATCGGAGTCACCTAGTGCAG | 8210 fluorescence intensity (a.u.) |
| CGATAAAGAGACTTTTTTTTTCCTTTTGCTCCTTTTCTTGCGGAGTCACCTAGTGCAG | 8240 fluorescence intensity (a.u.) |
| CACTCGGCCCAACAACCACCCGCATCCCCACCACCCCACACGGAGTCACCTAGTGCAG | 8460 fluorescence intensity (a.u.) |
| TGGGGATGGAAGAAGGTGTTGGGCAAGGTCACCAGTCCCGCGGAGTCACCTAGTGCAG | 9750 fluorescence intensity (a.u.) |
| ATTATCTCCACATTATTTTCATATTATTTAGATATATGCACGGAGTCACCTAGTGCAG | 8220 fluorescence intensity (a.u.) |
| AGCTGTGTATTTACTCCCTTCTTGAGGGTGCTTTCTTCATCGGAGTCACCTAGTGCAG | 11100 fluorescence intensity (a.u.) |
| TGCCTGTAGTGGCGGTTGGGGATGCGGATAAGGCGAGGGGCGGAGTCACCTAGTGCAG | 14500 fluorescence intensity (a.u.) |
| ACTTTTTTTCTCAATCTGTGCTCTTTCACGTGTTTGACTTCGGAGTCACCTAGTGCAG | 11400 fluorescence intensity (a.u.) |
| TACTCATCTTCCGTTGTCCTATGCTATTTTCTCCAGGGAACGGAGTCACCTAGTGCAG | 9400 fluorescence intensity (a.u.) |
| GTCGAGGGATGCCCGGTATCTGGTTTTGTGGTTGGGGACGCGGAGTCACCTAGTGCAG | 8730 fluorescence intensity (a.u.) |
| TCTTCCTTCTTGAGGGACATCTAACCATTGCCCCATTTTTCGGAGTCACCTAGTGCAG | 8020 fluorescence intensity (a.u.) |
| GTGGTTTCGCTGCTTGGTCATCACTGCTCCGTCGTCGGCTCGGAGTCACCTAGTGCAG | 8110 fluorescence intensity (a.u.) |
| TCACCATCAGACAGCATTGCTGTGTTTCTACCTGCCTGACCGGAGTCACCTAGTGCAG | 8660 fluorescence intensity (a.u.) |
| GATCCCCACTGTTTTTTCTTTTCCTTTTGGCCACTCTTTGCGGAGTCACCTAGTGCAG | 10300 fluorescence intensity (a.u.) |
| TGCTAGATCTGTTTCTACTTGCGTTTGCGTTGCTTGGCAACGGAGTCACCTAGTGCAG | 8500 fluorescence intensity (a.u.) |
| AGCAATACCGGACAATCCCTCGCGCCATCGAGCTTTCCTCCGGAGTCACCTAGTGCAG | 10800 fluorescence intensity (a.u.) |
| GGCGGCATCATCCTCATTCATTCAGTTCTTGTTTTGGCCACGGAGTCACCTAGTGCAG | 11900 fluorescence intensity (a.u.) |
| ACCGTGTCGAACAGCTTCTTCACTATCGCGGAATCACTCACGGAGTCACCTAGTGCAG | 11700 fluorescence intensity (a.u.) |
| AGCTAGCTCTGCCACCACTGCCATTCTACCTGTATTTTAACGGAGTCACCTAGTGCAG | 8950 fluorescence intensity (a.u.) |
| CACCGTTGACTTTTTGACCAACGTTTGACCCTTTGTTTTACGGAGTCACCTAGTGCAG | 57700 fluorescence intensity (a.u.) |
